Reference: article PMC8093946
These are yes or no findings as the source states them, for the method shown. Some binding calls cover weakened binding; strength is not graded here.

By UniProt entry, the sequences of proteins in these tests, tags left out. Residues count along the entry.
UniProt Q01955, residues 1439-1666: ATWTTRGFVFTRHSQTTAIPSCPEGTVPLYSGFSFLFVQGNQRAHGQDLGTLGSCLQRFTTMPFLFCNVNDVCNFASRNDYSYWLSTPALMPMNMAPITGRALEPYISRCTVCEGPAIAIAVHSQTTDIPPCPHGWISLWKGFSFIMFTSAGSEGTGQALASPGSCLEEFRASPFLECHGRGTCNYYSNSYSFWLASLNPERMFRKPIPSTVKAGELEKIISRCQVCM
UniProt P29400, residues 1461-1685: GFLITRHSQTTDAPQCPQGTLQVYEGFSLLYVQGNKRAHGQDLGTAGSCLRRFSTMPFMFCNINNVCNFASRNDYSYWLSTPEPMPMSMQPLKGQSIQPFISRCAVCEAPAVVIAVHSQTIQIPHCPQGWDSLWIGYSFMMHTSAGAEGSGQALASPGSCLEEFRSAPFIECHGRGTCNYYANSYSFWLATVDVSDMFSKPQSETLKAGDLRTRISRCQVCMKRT

T1: collagen IV α4 chain NC1 domain (as it stands in the single-chain α345 NC1 trimer) (human) (UniProt P53420)
T1 sequence: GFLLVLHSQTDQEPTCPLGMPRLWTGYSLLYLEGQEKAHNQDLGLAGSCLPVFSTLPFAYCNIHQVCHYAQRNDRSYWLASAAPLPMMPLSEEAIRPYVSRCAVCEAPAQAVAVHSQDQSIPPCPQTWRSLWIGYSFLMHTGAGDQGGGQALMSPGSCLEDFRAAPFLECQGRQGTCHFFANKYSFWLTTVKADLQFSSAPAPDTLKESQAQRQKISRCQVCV

B1: collagen IV α4 chain NC1 domain (as it stands in the single-chain α345 NC1 trimer) (domain or fragment, UniProt P53420 1465-1687)
chain: T1 sequence

Columns and labels:
Assay in all cases: crystal structure; hanging-drop vapor diffusion; protein ~10 mg/ml in 5-mM Tris HCl, pH 7.5, 150-mM NaCl mixed 1:1 with 100-mM Tris HCl, pH 8.5, 56% PEG 200; 22 °C; space group P4_(1)2_(1)2; one single-chain NC1 polypeptide per asymmetric unit; both purified
[1] = biological target: T1, collagen IV α4 chain NC1 domain (as it stands in the single-chain α345 NC1 trimer) (human)
[2] = biological target: collagen IV α3 chain NC1 domain (as it stands in the single-chain α345 NC1 trimer) (human) (UniProt Q01955)
[3] = biological target: collagen IV α5 chain NC1 domain (as it stands in the single-chain α345 NC1 trimer) (human) (UniProt P29400)

Row | Molecule | binding [1] | binding [2] | binding [3]
1 | collagen IV α3 chain NC1 domain (as it stands in the single-chain α345 NC1 trimer) (from UniProt Q01955 1439-1666) (domain or fragment) | binds | binds | 
2 | collagen IV α5 chain NC1 domain (as it stands in the single-chain α345 NC1 trimer) (from UniProt P29400 1461-1685) (domain or fragment) |  | binds | 
3 | B1 |  |  | binds
